From article PMC10799366 come the findings set out here.

Amino acid sequences for entries named in this document (tags omitted). Residues count along the entry.
UniProt P16070, residues 21-742: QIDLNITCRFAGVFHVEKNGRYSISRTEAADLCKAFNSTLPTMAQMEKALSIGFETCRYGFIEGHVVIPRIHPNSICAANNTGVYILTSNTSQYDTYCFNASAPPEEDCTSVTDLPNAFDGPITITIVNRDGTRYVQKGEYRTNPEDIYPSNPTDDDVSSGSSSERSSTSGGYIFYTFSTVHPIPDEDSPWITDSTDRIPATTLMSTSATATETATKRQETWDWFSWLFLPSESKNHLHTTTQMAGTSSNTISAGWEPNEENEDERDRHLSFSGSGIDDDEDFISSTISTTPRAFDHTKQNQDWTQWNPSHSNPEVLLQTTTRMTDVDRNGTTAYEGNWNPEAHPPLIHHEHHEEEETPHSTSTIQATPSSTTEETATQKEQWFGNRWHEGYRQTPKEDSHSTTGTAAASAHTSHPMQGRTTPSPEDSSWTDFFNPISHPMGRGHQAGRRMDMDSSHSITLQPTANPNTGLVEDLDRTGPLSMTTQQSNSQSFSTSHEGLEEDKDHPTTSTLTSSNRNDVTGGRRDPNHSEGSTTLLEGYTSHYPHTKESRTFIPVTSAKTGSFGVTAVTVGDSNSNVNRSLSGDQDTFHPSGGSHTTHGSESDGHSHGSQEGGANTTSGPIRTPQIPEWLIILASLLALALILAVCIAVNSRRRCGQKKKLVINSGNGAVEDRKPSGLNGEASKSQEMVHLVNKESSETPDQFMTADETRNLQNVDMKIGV
UniProt P26022, residues 18-381: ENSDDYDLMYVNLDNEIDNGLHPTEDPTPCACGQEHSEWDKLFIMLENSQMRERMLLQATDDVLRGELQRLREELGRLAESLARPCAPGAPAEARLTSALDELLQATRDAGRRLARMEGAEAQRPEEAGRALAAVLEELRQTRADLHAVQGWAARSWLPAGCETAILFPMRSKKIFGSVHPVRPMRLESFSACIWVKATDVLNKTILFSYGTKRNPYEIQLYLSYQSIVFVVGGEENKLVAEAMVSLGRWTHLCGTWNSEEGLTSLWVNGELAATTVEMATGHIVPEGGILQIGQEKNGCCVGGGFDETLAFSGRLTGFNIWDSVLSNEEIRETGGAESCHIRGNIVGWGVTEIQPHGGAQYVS

Results are given in words; binding and its absence hold for the method and conditions named. Binding seen in cells or lysates may run through a third protein. Some binding calls cover weakened binding; strength is not graded here.

The target in the experiment is CD44 on THP-1 macrophages (human (endogenous in THP-1)) (UniProt P16070). The experiment in a line: proximity ligation; in situ proximity ligation assay (PLA) on THP-1 macrophages, with or without the anti-PTX3 antibody WHC-001; only the binder purified.

With “Recombinant human wild-type pentraxin 3 (PTX3) (from UniProt P26022 18-381) (ligand)”, the binding result is “binds”.
